These are yes or no findings as the source states them, for the method shown. In cells and extracts the contact can be indirect. Some entries that bind do so weakly or less than the wild type. Sequences can lack the tags named with a protein.
Tests used:
[1] = biological target: T1, FLAG-WTAP, expressed from adenovirus (Ad-FLAG-WTAP) in primary mouse hepatocytes (UniProt Q9ER69); test: co-IP; primary hepatocytes infected with Ad-βGal or Ad-FLAG-WTAP adenovirus; total cell lysates immunoprecipitated with FLAG beads; blotted for endogenous proteins
T1 sequence: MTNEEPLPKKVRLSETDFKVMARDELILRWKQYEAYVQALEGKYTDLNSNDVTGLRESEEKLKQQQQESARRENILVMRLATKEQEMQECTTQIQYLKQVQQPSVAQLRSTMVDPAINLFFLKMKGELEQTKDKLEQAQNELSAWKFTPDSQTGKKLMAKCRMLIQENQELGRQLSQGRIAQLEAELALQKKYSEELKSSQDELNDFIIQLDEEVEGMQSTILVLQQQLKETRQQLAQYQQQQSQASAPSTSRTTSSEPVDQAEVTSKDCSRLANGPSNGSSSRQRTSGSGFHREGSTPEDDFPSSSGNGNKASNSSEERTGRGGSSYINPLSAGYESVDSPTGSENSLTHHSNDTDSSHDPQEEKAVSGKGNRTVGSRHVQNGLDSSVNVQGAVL

The chains behind the UniProt entries cited, without tags or fusion partners.
UniProt Q8C3P7: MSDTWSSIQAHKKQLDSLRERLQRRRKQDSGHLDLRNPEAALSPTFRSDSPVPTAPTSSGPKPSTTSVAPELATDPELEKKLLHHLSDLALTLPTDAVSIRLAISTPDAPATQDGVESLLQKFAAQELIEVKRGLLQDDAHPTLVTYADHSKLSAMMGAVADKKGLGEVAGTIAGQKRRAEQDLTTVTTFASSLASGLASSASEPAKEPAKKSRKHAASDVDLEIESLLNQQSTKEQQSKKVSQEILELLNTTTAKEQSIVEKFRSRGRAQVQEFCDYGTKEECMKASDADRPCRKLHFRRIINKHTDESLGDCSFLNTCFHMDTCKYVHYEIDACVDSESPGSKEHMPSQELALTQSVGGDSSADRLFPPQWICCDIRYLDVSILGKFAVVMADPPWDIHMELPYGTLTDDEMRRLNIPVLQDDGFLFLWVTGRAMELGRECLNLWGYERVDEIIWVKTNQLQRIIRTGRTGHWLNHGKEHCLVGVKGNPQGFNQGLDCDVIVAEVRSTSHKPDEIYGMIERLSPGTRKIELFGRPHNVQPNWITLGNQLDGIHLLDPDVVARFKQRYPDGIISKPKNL
UniProt O09106: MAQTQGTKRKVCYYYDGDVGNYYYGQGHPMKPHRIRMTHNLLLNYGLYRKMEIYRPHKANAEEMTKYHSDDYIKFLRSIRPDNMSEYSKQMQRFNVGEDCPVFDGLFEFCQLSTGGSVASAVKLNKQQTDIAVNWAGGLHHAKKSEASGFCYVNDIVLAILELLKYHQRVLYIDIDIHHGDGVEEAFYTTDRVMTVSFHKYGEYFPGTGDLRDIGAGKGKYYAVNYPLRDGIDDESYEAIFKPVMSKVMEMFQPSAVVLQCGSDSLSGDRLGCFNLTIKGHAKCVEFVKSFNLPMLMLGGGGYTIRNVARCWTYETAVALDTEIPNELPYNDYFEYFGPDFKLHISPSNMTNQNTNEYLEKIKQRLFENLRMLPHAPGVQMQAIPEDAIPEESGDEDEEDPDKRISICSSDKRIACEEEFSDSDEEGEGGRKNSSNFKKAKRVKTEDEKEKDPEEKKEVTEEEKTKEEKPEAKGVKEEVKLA
UniProt Q99J95: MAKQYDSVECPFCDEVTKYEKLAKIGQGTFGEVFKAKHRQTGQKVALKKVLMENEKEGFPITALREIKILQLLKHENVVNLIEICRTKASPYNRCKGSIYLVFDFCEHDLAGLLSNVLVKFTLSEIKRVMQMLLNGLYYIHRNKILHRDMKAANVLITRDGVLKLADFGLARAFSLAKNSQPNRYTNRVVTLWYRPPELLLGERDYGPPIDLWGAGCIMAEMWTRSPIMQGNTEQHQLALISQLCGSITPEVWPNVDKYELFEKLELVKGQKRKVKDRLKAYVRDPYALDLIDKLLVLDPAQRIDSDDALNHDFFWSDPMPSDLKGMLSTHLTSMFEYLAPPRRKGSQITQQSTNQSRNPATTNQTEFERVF

[2] = biological target: T2, FLAG-WTAP (Wilms' tumor 1-associating protein), expressed in HEK293T cells (UniProt Q9ER69); test: co-IP; HEK293T cells co-transfected with HA-HDAC1 with or without FLAG-WTAP for 48 h; RIPA lysates incubated with DNase1 (200U/ml) at 37 °C for 30 min; immunoprecipitated with FLAG or HA beads at 4 °C for 2 hours; blotted with anti-HA or anti-FLAG
T2 sequence: T1 sequence

[3] = biological target: T2, FLAG-WTAP (Wilms' tumor 1-associating protein), expressed in HEK293T cells; test: co-IP; HEK293T cells co-transfected with MYC-CDK9 with or without FLAG-WTAP; total cell lysates immunoprecipitated with FLAG beads; blotted with anti-MYC or anti-FLAG

binding [1] | Substance | other results
binds | METTL3, endogenous in primary mouse hepatocytes (from UniProt Q8C3P7 1-580) (enzyme) | 
 | HA-HDAC1, expressed in HEK293T cells (from UniProt O09106 1-482) (enzyme) | binding [2]: binds
binds | HDAC1, endogenous in primary mouse hepatocytes (from UniProt O09106 1-482) (enzyme) | 
 | MYC-CDK9, expressed in HEK293T cells (from UniProt Q99J95 1-372) (enzyme) | binding [3]: binds

Source: publication PMC9352699
